Results as given in article PMC8233271.

Target: Cyclic GMP-dependent protein kinase (PKG), in H9C2 cells (co-IP)
Experiment: co-IP; H9C2 cells overexpressing PKG and cCbl, synthetic TAG-23 peptide added to the cells; loss of cCbl from the PKG precipitate as read-out of competition; only the binder purified

B1: TAG-23 peptide (peptide)
peptide: MGSNRGASQAGMTGYGRPRQIIS
- binding: binds

No constants are given. Whether binding was seen depends on the method and setting. Binding seen in cells or lysates may run through a third protein. Binding can be weak; no strength is given. Sequences can lack the tags named with a protein.
